Laboratory results: paper PMC1790709
These are yes or no findings as the source states them, for the method shown. Some binding calls cover weakened binding; strength is not graded here.

Target: T1, C-terminal domain of mouse α-dystrobrevin (amino acids 461-554) (mouse) (UniProt Q9D2N4)
T1 sequence: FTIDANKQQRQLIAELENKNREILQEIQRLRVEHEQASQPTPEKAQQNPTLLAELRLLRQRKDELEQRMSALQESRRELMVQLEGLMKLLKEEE
Assay: two-hybrid; pBHA-based bait and pGAD10-based prey constructs co-transformed into L40 S. cerevisiae; activation of LacZ (X-gal hydrolysis) and HIS3 (growth on histidine-depleted minimal medium) reporter genes

B1: C-terminal domain of mouse dystrophin (amino acids 3484-3600) (domain or fragment, UniProt P11531 3484-3600)
chain: PAQILISLESEERGELERILADLEEENRNLQAEYDRLKQQHEHKGLSPLPSPPEMMPTSPQSPRDAELIAEAKLLRQHKGRLEARMQILEDHNKQLESQLHRLRQLLEQPQAEAKVN
B1 was tested, and the binding was “binds”.
